# Assay results as given in US20230381176A1, “A PHARMACEUTICAL COMPOSITION AND USE THEREOF FOR TREATMENT OF CANCER” (Ascentage Pharma (Suzhou) Co., Ltd., priority 2020, published 2023).
# At least one structure is not confirmed: it was looked up by name or label, or the drawing left a doubt.
# Assays:
# [1] = system: Mesothelioma MT16036 (TP53 mut, FAK amp and CDK4 high) PDX; test: s.c. Mesothelioma MT16036 PDX xenograft tumor model, Compound 5 and palbociclib; assay type: in vivo, mouse
# Protocol: A subcutaneous xenograft tumor model of human tumor immunodeficient mice was established by cell inoculation: tumor cells in logarithmic growth phase were collected, counted, resuspended in 1×PBS, and the cell suspension concentration was adjusted to 2.5-5 ×10^7/mL. The tumor cells were inoculated subcutaneously in the right side of immunodeficient mice with a 1 mL syringe ([…]), 5-10×10^6/0.2 mL/mouse. […] Animal body weight and tumor size were measured twice weekly during the experiment. […] The growth of tumor and the effects of treatment on normal behavior of animals were monitored routinely, specifically involving experimental animal activity, feeding and drinking, weight gain or loss, eyes, clothing hair and other abnormalities. The deaths and clinical symptoms observed during the experiment were recorded in the raw data. […] The plasma and tumor samples were frozen at -80° C. for ready-to-use. Tumor volume (TV) is calculated as: […] The relative tumor volume (RTV) is calculated as: […] […] Change of body weight (%)=(measured body weight-body weight at the start of grouping)/body weight at the start of grouping×100%. […]
# [2] = system: U-87-MG subcutaneous glioblastoma; test: U-87-MG subcutaneous glioblastoma model, Compound 5 and Palbociclib; assay type: in vivo; conditions: animals per class
# Protocol: In this experiment, a U-87-MG subcutaneous glioblastoma model (Wuxi Pharma Tech) was established to evaluate the anti-tumor effect of Compound 5 in combination with Palbociclib/Trametinib/TMZ. The dosing regimen was as follows: • Compound 5: 100 mg/kg, PO QD 21 D; • Palbociclib: 20mg/kg,QD QD 21 D, • Trametinib: 0.5 mg/kg QD QD 21 D, • TMZ 50 mg/kg QD QD 21 D, The dosing regimen of each drug in the dosing regimen for the combination is the same as the dosing regimen for the single drug. [table]
# [3] = system: A549 NSCLC xenograft; test: s.c. A549 NSCLC lung cancer model, Compound 5 and panobinostat; conditions: mouse, in vivo
# [4] = system: A549 NSCLC xenograft; test: s.c. A549 NSCLC xenograft tumor model, Compound 5 and trametinib/selumetinib; assay type: in vivo, mouse; conditions: for mRECIST on Day 19 after administration: Day 19, animals per class; for mRECIST: best response, animals per class; for antitumor activity (conclusion in words): mouse, in vivo
# Protocol: A subcutaneous xenograft tumor model of human tumor immunodeficient mice was established by cell inoculation: tumor cells in logarithmic growth phase were collected, counted, resuspended in 1×PBS, and the cell suspension concentration was adjusted to 2.5-5 ×10^7/mL. The tumor cells were inoculated subcutaneously in the right side of immunodeficient mice with a 1 mL syringe ([…]), 5-10×10^6/0.2 mL/mouse. All animal experiments were strictly in accordance with the specifications for the use and management of experimental animals in GenePharma Co., Ltd. and Suzhou Ascentage Pharma Co., Ltd. The calculation of relevant parameters refers to the Chinese NMPA “Guidelines for Non-Clinical Research Techniques of Cytotoxic Anti-tumor Drugs”.
# Animal body weight and tumor size were measured twice weekly during the experiment. The state of the animal and the presence or absence of death were observed every day. The growth of tumor and the effects of treatment on normal behavior of animals were monitored routinely, specifically involving experimental animal activity, feeding and drinking, weight gain or loss, eyes, clothing hair and other abnormalities. The deaths and clinical symptoms observed during the experiment were recorded in the raw data. All operations for administration and measurement of mouse body weight and tumor volume were performed in a clean bench. According to the requirements of the experimental protocol, after the end of the last administration, plasma and tumor tissues were collected, weighed and photographed. The plasma and tumor samples were frozen at −80° C. for ready-to-use.
# Tumor volume (TV) is calculated as: TV=a×b^2/2, wherein a and b represent the length and width of the tumor to be measured, respectively.
# The relative tumor volume (RTV) is calculated as: RTV=Vt/V1, wherein V1 is the tumor volume at the start of grouping and administration, and Vt is the tumor volume measured on the t day after administration.
# The evaluation index of anti-tumor activity is the relative tumor proliferation rate T/C (%), and the calculation formula thereof is: relative tumor proliferation rate T/C (%)=(TRTV/CRTV)×100%, TRTV is the RTV of treatment group, CRTV is the RTV of solvent control group.
# Change of body weight (%)=(measured body weight−body weight at the start of grouping)/body weight at the start of grouping×100%.
# A dose of drug is considered to be severely toxic if the body weight of mouse is reduced by more than 20% or the number of drug-related deaths exceeds 20%.
# According to the description by Clarke R., Issues in experimental design and endpoint analysis in the study of experimental cytotoxic agents in vivo in breast cancer and other models [J]. Breast Cancer Research & Treatment, 1997, 46(2-3): 255-278, synergy analysis was evaluated using the following formula: synergy factor=((A/C)×(B/C))/(AB/C); A=RTV value of drug A alone group; B=RTV value of drug B alone group; C=RTV value of the solvent control group, and AB=RTV value of the A and B combination group.
# Use of mRECIST (Gao et al., 2015) measured tumor responses included stable disease (SD), partial tumor regression (PR), and complete regression (CR), determined by comparing tumor volume change at day t to its baseline: tumor volume change (%)=(Vt−V1)/V1. The BestResponse was the minimum value of tumor volume change (%) for t≥10. For each time t, the average of tumor volume changes from t=1 to t was also calculated. BestAvgResponse was defined as the minimum value of this average for t≥10. The criteria for response (mRECIST) were adapted from RECIST criteria (Gao et al., 2015; Therasse et al., 2000) and defined as follows: mCR, BestResponse<−95% and BestAvg Response<−40%; mPR, BestResponse<−50% and BestAvgResponse<−20%; mSD, BestResponse<35% and BestAvgResponse<30%; mPD, not otherwise categorized. SD, PR, and CR were considered responders and used to calculate response rate (%). […] Body weight of animals were monitored simultaneously. […]
SMILES,Modified response evaluation criteria in solid tumors (mRECIST) ([1]; animals per response class),"antitumor activity (conclusion in words) ([1]; mouse, in vivo)",mRECIST [2],antitumor activity (conclusion in words) [3],mRECIST on Day 19 after administration [4],mRECIST [4],antitumor activity (conclusion in words) [4]
"CC(=O)c1c(C)c2cnc(Nc3ccc(N4CCNCC4)cn3)nc2n(C2CCCC2)c1=O [Palbociclib, palbociclib, reference compound]",2/2 PD,moderate antitumor activity,5/5 PD,,,,
"Cc1[nH]c2ccccc2c1CCNCc1ccc(/C=C/C(=O)NO)cc1 [panobinostat, reference compound]",,,,moderate antitumor activity,,,
"Cn1cnc2c(F)c(Nc3ccc(Br)cc3Cl)c(C(=O)NOCCO)cc21 [Selumetinib, selumetinib]",,,,,5/5 PD,"1/5 SD, 4/5 PD",minor antitumor activity
"CC(=O)Nc1cccc(-n2c(=O)n(C3CC3)c(=O)c3c(Nc4ccc(I)cc4F)n(C)c(=O)c(C)c32)c1 [Trametinib, trametinib]",,,,,5/5 PD,5/5 PD,minor antitumor activity
